No constants are given. Whether binding was seen depends on the method and setting. In cells and extracts the contact can be indirect. Here binding means that the protein was enriched with, or labelled near, the bait; the list need not be complete. For part of these data: Sequences can lack the tags named with a protein. Values belong to the molecule of their own block, whether it stands above or below them.
Key:
[1] = target: T1, OST-tagged SLP76 (SLP-76^OST) (human) (UniProt Q13094); assay: affinity purification with mass spectrometry; OST-tagged bait in n-dodecyl-β-D-maltoside lysates of expanded primary human CD8+ T cells, unstimulated or stimulated with anti-CD3 plus anti-CD28 for 30, 60, 120 and 300 s; captured on Strep-Tactin Sepharose, eluted with D-biotin, LC-MS/MS; compared with control cells
T1 sequence: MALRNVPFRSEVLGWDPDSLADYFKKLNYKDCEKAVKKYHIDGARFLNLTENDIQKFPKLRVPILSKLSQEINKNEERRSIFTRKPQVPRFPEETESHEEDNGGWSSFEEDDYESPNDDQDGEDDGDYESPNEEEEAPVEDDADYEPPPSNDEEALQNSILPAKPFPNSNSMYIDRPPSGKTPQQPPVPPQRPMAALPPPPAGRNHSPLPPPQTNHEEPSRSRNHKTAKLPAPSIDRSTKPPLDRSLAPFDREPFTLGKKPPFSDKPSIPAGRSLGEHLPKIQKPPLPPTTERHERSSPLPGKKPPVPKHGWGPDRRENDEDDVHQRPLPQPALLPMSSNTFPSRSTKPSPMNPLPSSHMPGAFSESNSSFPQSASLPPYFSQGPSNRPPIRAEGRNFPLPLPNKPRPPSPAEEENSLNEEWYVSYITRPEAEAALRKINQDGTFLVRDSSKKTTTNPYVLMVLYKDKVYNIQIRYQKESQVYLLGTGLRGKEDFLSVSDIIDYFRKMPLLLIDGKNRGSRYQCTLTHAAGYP

Sequences of proteins named here, by UniProt entry; tags and fusion partners are left off. A change or cut given only in a name is not applied to a line headed by its entry. Residues count along the entry.
UniProt P43403: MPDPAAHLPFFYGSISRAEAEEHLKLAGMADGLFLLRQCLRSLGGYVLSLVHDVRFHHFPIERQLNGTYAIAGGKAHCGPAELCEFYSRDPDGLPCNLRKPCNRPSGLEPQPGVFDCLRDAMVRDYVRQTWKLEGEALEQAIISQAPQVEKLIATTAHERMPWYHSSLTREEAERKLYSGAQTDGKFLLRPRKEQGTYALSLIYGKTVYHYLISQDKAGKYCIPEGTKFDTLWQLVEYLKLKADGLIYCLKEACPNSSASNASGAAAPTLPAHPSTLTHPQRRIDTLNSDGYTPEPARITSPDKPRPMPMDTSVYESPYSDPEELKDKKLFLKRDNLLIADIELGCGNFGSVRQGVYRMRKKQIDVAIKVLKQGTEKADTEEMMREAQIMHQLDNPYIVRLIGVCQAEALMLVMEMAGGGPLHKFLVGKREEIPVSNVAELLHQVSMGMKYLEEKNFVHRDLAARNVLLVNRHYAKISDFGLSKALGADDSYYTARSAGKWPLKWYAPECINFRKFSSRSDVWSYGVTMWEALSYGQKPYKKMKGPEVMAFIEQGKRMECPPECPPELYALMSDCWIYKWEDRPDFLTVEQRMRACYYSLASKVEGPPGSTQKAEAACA
UniProt P62258: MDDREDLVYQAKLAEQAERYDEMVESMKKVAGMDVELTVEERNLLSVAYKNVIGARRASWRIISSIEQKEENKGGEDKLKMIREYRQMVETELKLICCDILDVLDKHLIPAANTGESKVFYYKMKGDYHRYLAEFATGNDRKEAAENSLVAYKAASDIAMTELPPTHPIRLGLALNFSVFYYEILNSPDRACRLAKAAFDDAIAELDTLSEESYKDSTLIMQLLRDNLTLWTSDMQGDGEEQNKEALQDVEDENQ
UniProt P07766, residues 23-207: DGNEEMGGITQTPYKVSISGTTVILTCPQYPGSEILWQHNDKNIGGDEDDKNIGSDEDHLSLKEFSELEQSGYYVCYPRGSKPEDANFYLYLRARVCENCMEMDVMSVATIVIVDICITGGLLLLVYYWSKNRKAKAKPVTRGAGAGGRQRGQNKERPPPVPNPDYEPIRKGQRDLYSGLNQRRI
UniProt Q9UJ70: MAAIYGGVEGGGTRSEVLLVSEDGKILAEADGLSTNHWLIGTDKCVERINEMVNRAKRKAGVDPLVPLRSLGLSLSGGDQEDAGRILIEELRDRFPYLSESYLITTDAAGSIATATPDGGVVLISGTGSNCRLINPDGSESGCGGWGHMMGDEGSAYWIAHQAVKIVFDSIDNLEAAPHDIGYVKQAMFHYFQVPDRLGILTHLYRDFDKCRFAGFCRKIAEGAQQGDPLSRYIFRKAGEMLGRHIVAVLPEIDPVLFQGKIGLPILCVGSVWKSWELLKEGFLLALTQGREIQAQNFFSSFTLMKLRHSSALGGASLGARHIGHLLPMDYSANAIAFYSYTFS
UniProt O43639: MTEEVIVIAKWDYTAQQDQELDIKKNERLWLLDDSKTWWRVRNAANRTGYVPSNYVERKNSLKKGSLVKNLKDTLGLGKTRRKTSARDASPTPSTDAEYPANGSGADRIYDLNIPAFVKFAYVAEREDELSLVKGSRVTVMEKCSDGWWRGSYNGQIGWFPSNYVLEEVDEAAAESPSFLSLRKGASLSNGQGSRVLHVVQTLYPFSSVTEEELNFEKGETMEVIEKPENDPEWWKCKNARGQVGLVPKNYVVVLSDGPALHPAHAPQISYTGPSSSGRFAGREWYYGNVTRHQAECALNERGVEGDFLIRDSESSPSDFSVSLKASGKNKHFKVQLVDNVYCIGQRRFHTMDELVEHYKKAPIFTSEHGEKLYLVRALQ
UniProt Q92918: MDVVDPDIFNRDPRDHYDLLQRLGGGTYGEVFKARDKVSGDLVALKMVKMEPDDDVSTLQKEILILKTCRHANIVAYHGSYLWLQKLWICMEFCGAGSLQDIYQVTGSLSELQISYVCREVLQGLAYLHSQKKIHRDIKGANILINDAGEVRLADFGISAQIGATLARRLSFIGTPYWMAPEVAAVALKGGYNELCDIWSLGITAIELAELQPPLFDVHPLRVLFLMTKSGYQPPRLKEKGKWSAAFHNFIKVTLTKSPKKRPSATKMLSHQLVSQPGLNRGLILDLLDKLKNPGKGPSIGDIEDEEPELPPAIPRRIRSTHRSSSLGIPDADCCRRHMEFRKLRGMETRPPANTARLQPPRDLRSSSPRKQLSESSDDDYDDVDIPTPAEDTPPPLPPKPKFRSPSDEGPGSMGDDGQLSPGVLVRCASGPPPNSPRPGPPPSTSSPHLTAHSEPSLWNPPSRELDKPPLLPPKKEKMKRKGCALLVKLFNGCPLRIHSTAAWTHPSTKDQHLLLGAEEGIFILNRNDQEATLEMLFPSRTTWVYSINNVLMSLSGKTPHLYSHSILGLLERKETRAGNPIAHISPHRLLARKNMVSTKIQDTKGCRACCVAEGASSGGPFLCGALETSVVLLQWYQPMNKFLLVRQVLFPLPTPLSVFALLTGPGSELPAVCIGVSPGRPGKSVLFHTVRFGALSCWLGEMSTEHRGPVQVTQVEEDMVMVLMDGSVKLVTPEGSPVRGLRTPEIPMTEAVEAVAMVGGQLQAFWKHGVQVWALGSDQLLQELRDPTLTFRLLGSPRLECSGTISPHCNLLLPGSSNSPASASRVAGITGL
UniProt P31946: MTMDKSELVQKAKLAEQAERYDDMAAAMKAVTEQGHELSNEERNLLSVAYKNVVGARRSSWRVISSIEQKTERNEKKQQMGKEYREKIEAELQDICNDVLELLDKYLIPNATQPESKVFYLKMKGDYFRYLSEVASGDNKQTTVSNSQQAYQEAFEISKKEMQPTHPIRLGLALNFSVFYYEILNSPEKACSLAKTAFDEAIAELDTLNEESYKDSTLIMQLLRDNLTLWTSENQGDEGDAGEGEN
UniProt P09693, residues 23-182: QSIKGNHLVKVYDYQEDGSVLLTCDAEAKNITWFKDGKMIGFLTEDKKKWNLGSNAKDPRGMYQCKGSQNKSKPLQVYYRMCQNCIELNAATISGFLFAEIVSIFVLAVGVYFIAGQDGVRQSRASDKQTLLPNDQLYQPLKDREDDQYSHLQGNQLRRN
UniProt P04234, residues 22-171: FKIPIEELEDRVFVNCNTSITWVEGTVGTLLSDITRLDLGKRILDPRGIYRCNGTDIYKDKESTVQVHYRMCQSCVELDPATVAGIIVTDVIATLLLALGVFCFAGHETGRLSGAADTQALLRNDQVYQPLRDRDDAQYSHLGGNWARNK

[2] = target: T1, OST-tagged SLP76 (SLP-76^OST) (human); assay: affinity purification with mass spectrometry; OST-tagged bait in n-dodecyl-β-D-maltoside lysates of expanded primary human CD4+ T cells, unstimulated or stimulated with anti-CD3 plus anti-CD28 for 30, 60, 120 and 300 s; captured on Strep-Tactin Sepharose 1.5 h at 4°C, eluted with 2.5 mM D-biotin, LC-MS/MS; compared with mock-edited control cells
[3] = target: ZAP-70^OST (human) (UniProt P43403); assay: affinity purification with mass spectrometry; OST-tagged bait in n-dodecyl-β-D-maltoside lysates of expanded primary human CD8+ T cells, unstimulated or stimulated with anti-CD3 plus anti-CD28 for 30, 60, 120 and 300 s; captured on Strep-Tactin Sepharose, eluted with D-biotin, LC-MS/MS; compared with control cells
[4] = target: ZAP-70^OST (human) (UniProt P43403); assay: affinity purification with mass spectrometry; OST-tagged bait in n-dodecyl-β-D-maltoside lysates of expanded primary human CD4+ T cells, unstimulated or stimulated with anti-CD3 plus anti-CD28 for 30, 60, 120 and 300 s; captured on Strep-Tactin Sepharose 1.5 h at 4°C, eluted with 2.5 mM D-biotin, LC-MS/MS; compared with mock-edited control cells

binding [1]: binds
binding [2]: binds
Molecule: 14-3-3 ε (from UniProt P62258 1-255)

binding [3]: binds
binding [4]: binds
Molecule: CD3ε subunit of the TCR-CD3 complex (from UniProt P07766 23-207)

binding [2]: binds
Molecule: NAGK (from UniProt Q9UJ70 1-344)

binding [2]: binds
Molecule: NCK2 cytosolic adaptor (from UniProt O43639 1-380)

binding [1]: binds
binding [2]: binds
Molecule: serine-threonine protein kinase hematopoietic progenitor kinase 1 (from UniProt Q92918 1-833) (enzyme)

binding [1]: binds
binding [4]: binds
binding [2]: binds
B1: ubiquitin-associated and SH3 domain-containing protein UBASH3A (protein, UniProt P57075 1-661)
chain: MAAGETQLYAKVSNKLKSRSSPSLLEPLLAMGFPVHTALKALAATGRKTAEEALAWLHDHCNDPSLDDPIPQEYALFLCPTGPLLEKLQEFWRESKRQCAKNRAHEVFPHVTLCDFFTCEDQKVECLYEALKRAGDRLLGSFPTAVPLALHSSISYLGFFVSGSPADVIREFAMTFATEASLLAGTSVSRFWIFSQVPGHGPNLRLSNLTRASFVSHYILQKYCSVKPCTKQLHLTLAHKFYPHHQRTLEQLARAIPLGHSCQWTAALYSRDMRFVHYQTLRALFQYKPQNVDELTLSPGDYIFVDPTQQDEASEGWVIGISQRTGCRGFLPENYTDRASESDTWVKHRMYTFSLATDLNSRKDGEASSRCSGEFLPQTARSLSSLQALQATVARKSVLVVRHGERVDQIFGKAWLQQCSTPDGKYYRPDLNFPCSLPRRSRGIKDFENDPPLSSCGIFQSRIAGDALLDSGIRISSVFASPALRCVQTAKLILEELKLEKKIKIRVEPGIFEWTKWEAGKTTPTLMSLEELKEANFNIDTDYRPAFPLSALMPAESYQEYMDRCTASMVQIVNTCPQDTGVILIVSHGSTLDSCTRPLLGLPPRECGDFAQLVRKIPSLGMCFCEENKEEGKWELVNPPVKTLTHGANAAFNWRNWISGN

binding [1]: binds
binding [2]: binds
B3: 14-3-3 η (protein, UniProt Q04917 1-246)
chain: MGDREQLLQRARLAEQAERYDDMASAMKAVTELNEPLSNEDRNLLSVAYKNVVGARRSSWRVISSIEQKTMADGNEKKLEKVKAYREKIEKELETVCNDVLSLLDKFLIKNCNDFQYESKVFYLKMKGDYYRYLAEVASGEKKNSVVEASEAAYKEAFEISKEQMQPTHPIRLGLALNFSVFYYEIQNAPEQACLLAKQAFDDAIAELDTLNEDSYKDSTLIMQLLRDNLTLWTSDQQDEEAGEGN

Continued, molecule first:

Molecule: 14-3-3 β (from UniProt P31946 1-246)
binding [1]: binds
binding [2]: binds

Molecule: CD3γ subunit of the TCR-CD3 complex (from UniProt P09693 23-182)
binding [3]: binds
binding [4]: binds

Molecule: CD3δ subunit of the TCR-CD3 complex (from UniProt P04234 22-171)
binding [3]: binds
binding [4]: binds

Molecule: CD3ζ subunit of the TCR-CD3 complex (from UniProt P20963-1 22-164)
binding [3]: binds
binding [4]: binds

B2: 14-3-3 γ (protein, UniProt P61981 1-247)
chain: MVDREQLVQKARLAEQAERYDDMAAAMKNVTELNEPLSNEERNLLSVAYKNVVGARRSSWRVISSIEQKTSADGNEKKIEMVRAYREKIEKELEAVCQDVLSLLDNYLIKNCSETQYESKVFYLKMKGDYYRYLAEVATGEKRATVVESSEKAYSEAHEISKEHMQPTHPIRLGLALNYSVFYYEIQNAPEQACHLAKTAFDDAIAELDTLNEDSYKDSTLIMQLLRDNLTLWTSDQQDDDGGEGNN
binding [1]: binds
binding [2]: binds

B4: phospholipase PLC-γ1 (enzyme, UniProt P19174 1-1290)
chain: MAGAASPCANGCGPGAPSDAEVLHLCRSLEVGTVMTLFYSKKSQRPERKTFQVKLETRQITWSRGADKIEGAIDIREIKEIRPGKTSRDFDRYQEDPAFRPDQSHCFVILYGMEFRLKTLSLQATSEDEVNMWIKGLTWLMEDTLQAPTPLQIERWLRKQFYSVDRNREDRISAKDLKNMLSQVNYRVPNMRFLRERLTDLEQRSGDITYGQFAQLYRSLMYSAQKTMDLPFLEASTLRAGERPELCRVSLPEFQQFLLDYQGELWAVDRLQVQEFMLSFLRDPLREIEEPYFFLDEFVTFLFSKENSVWNSQLDAVCPDTMNNPLSHYWISSSHNTYLTGDQFSSESSLEAYARCLRMGCRCIELDCWDGPDGMPVIYHGHTLTTKIKFSDVLHTIKEHAFVASEYPVILSIEDHCSIAQQRNMAQYFKKVLGDTLLTKPVEISADGLPSPNQLKRKILIKHKKLAEGSAYEEVPTSMMYSENDISNSIKNGILYLEDPVNHEWYPHYFVLTSSKIYYSEETSSDQGNEDEEEPKEVSSSTELHSNEKWFHGKLGAGRDGRHIAERLLTEYCIETGAPDGSFLVRESETFVGDYTLSFWRNGKVQHCRIHSRQDAGTPKFFLTDNLVFDSLYDLITHYQQVPLRCNEFEMRLSEPVPQTNAHESKEWYHASLTRAQAEHMLMRVPRDGAFLVRKRNEPNSYAISFRAEGKIKHCRVQQEGQTVMLGNSEFDSLVDLISYYEKHPLYRKMKLRYPINEEALEKIGTAEPDYGALYEGRNPGFYVEANPMPTFKCAVKALFDYKAQREDELTFIKSAIIQNVEKQEGGWWRGDYGGKKQLWFPSNYVEEMVNPVALEPEREHLDENSPLGDLLRGVLDVPACQIAIRPEGKNNRLFVFSISMASVAHWSLDVAADSQEELQDWVKKIREVAQTADARLTEGKIMERRKKIALELSELVVYCRPVPFDEEKIGTERACYRDMSSFPETKAEKYVNKAKGKKFLQYNRLQLSRIYPKGQRLDSSNYDPLPMWICGSQLVALNFQTPDKPMQMNQALFMTGRHCGYVLQPSTMRDEAFDPFDKSSLRGLEPCAISIEVLGARHLPKNGRGIVCPFVEIEVAGAEYDSTKQKTEFVVDNGLNPVWPAKPFHFQISNPEFAFLRFVVYEEDMFSDQNFLAQATFPVKGLKTGYRAVPLKNNYSEDLELASLLIKIDIFPAKENGDLSPFSGTSLRERGSDASGQLFHGRAREGSFESRYQQPFEDFRISQEHLADHFDSRERRAPRRTRVNGDNRL
binding [1]: binds
binding [2]: binds

B5: 14-3-3 θ (protein, UniProt P27348 1-245)
chain: MEKTELIQKAKLAEQAERYDDMATCMKAVTEQGAELSNEERNLLSVAYKNVVGGRRSAWRVISSIEQKTDTSDKKLQLIKDYREKVESELRSICTTVLELLDKYLIANATNPESKVFYLKMKGDYFRYLAEVACGDDRKQTIDNSQGAYQEAFDISKKEMQPTHPIRLGLALNFSVFYYEILNNPELACTLAKTAFDEAIAELDTLNEDSYKDSTLIMQLLRDNLTLWTSDSAGEECDAAEGAEN
binding [1]: binds
binding [2]: binds

Reference: article PMC8789201
